Measured values published in PubChem BioAssay AID504834 (National Center for Advancing Translational Sciences (NCATS), 2011).
The whole screen tested about 320,000 compounds, of which about 22,000 (6.9%) were called active. Inconclusive results, whose numbers are uncertain, are shown with a selection of clear calls. Calls follow the shape of the dose curve; as a rule, active = well fitted inhibition curve with a large enough effect; inconclusive = small, poorly fitted or top-dose-only effect, or another doubt; inactive = no such curve, though single readings can be large or run the other way. Where the call is inconclusive, the potency comes from a doubtful curve fit.

experiment: Primary qHTS for delayed death inhibitors of the malarial parasite plastid, 96 hour incubation; settings: P. falciparum luciferase reporter growth; series mostly up to 28.7 µM
Summary of the method: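 P. falciparum expressing integrated firefly luciferase, in erythrocytes at 2% hematocrit, 0.05% parasitemia, incubated with compounds 96 h at 37 C, 5% CO2. Growth inhibition read as loss of luminescence; two-generation exposure targets delayed-death apicoplast inhibitors.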
% is scaled to controls: 0 for no effect and ±100 for the full control effect; potency is read from the fitted curve at half-maximal effect.

Compound	Potency	activity change, negative = inhibition
COc1ccc(-c2nc(-c3cccs3)c(-c3cccs3)[nH]2)cc1O	inconclusive: 2.33 µM [inhibitor, partial curve]	
COc1ccc(S(=O)(=O)N(Cc2ccccc2)c2ccccc2C(=O)O)cc1	active: 13.1 µM	
Cc1c(NS(=O)(=O)c2ccc3c(c2)OCCO3)cccc1-c1nc2cccnc2s1	inconclusive: 18.5 µM [inhibitor, single point]	
Nn1c(COc2cccc(Cl)c2)nc2ccccc2c1=O	inconclusive: 1.65 µM [inhibitor, partial curve, poor fit]	
CCOc1cccc2sc(N(CCN(C)C)C(=O)c3ccc4ccccc4c3)nc12	inactive	
CC(=O)NC(CC(=O)OCC(=O)c1c(N)n(CC(C)C)c(=O)n(C)c1=O)c1ccccc1 (configuration not stated)	active: 9.28 µM	
Cc1cccc(N2CC(C(=O)O)CC2=O)c1 (configuration not stated)	inconclusive: 18.5 µM [inhibitor, single point]	
NC(=O)c1ccc([N+](=O)[O-])cc1SCc1ccccc1	inconclusive: 0.522 µM [inhibitor, full curve]	
COc1cccc(N/C(N)=N/c2nc(C)cc(=O)[nH]2)c1	inactive	
COc1ccc(CC(=O)N2CCc3cc(OC)c(OC)cc3C2O)cc1OC (configuration not stated)	inconclusive: 18.5 µM [inhibitor, single point]	
CN(c1ccccc1)S(=O)(=O)c1cccc(NC(=O)Cc2c(F)cccc2Cl)c1	active: 14.7 µM	
N#CCCN1CCN(S(=O)(=O)c2ccc(S(=O)(=O)NC3CCCC3)cc2)CC1	inconclusive: 11.7 µM [inhibitor, single point]	
O=C(Nc1ccc(Cl)cc1)Nc1nc(-c2ccccc2)cs1	inconclusive: 5.86 µM [inhibitor, partial curve, poor fit]	
NC(=O)c1nsc(C(=O)N(CCCN2CCOCC2)C(C(=O)NC2CCCCC2)c2ccc(Cl)cc2)c1N (configuration not stated)	inactive	
O=S(=O)(NCc1ccccc1)c1ccc2ccccc2c1	inactive	
Cc1cc2cc(NC(=O)c3ccco3)ccc2[nH]1		inactive: 17% [at 5.75 µM]
Cc1ccc(-n2nnnc2SCC(=O)NCC2(N3CCOCC3)CCCCC2)c(C)c1	inconclusive: 11.7 µM [inhibitor, partial curve, poor fit]	
CC(=O)c1ccc(NC(=O)CSc2ccc(-c3ccc(-n4cccn4)cc3)nn2)cc1	inactive	
CCOC(=O)c1c(C)[nH]c2ccc(O)cc12	inconclusive: 13.1 µM [inhibitor, single point]	
O=C(O)c1ccc(/C=N/NC(=O)c2ccc3c(c2)OCCO3)cc1	inconclusive: 18.5 µM [inhibitor, single point]	
Cc1ccnc(NS(=O)(=O)c2ccc(NC(=O)CN3C(=O)CCC3=O)cc2)n1	inactive	
Cc1nn(CC(=O)NCCc2ccc(Cl)cc2)c(C)c1[N+](=O)[O-]	inconclusive: 18.5 µM [inhibitor, single point]	
Cc1cccc(C(=O)NNC(=O)C2CCN(C(=O)OC(C)(C)C)CC2)c1	inconclusive: 2.33 µM [inhibitor, partial curve, poor fit]	
COc1ccccc1CNC(=O)C(=O)c1cn(CC(=O)N2CCOCC2)c2ccccc12	inactive	

Compound	Potency	activity change, negative = inhibition
CCOC(=O)c1c(S(=O)(=O)N2CCN(C)CC2)c(C)n(C)c1C	inconclusive: 13.1 µM [inhibitor, single point]	
CCOC(=O)c1sc(Nc2cccc(Cl)c2)nc1C	inactive	
CN(C)C(=S)NC1CCS(=O)(=O)C1 (configuration not stated)	inconclusive: 14.7 µM [inhibitor, partial curve, poor fit]	
COc1ccc(NC(=S)N2CCC(NC(=O)c3ccco3)CC2)cc1	inactive	
CC(C)=NNC(=O)C1=NNC(=O)C1	inactive	
O=C(CCNc1cccc(F)c1)c1cc2ccccc2o1	inconclusive: 5.86 µM [inhibitor, partial curve]	
CC1CCC(C(C)C)C(OCC(O)CNC(C)C)C1 (configuration not stated)	inconclusive: 11.7 µM [inhibitor, partial curve, poor fit]	
CCCCn1c(N)c(N(Cc2ccccc2OC)C(=O)COc2ccccc2OC)c(=O)[nH]c1=O	inconclusive: 13.1 µM [inhibitor, partial curve]	
N#Cc1cc(-c2ccccc2)nc(Oc2ccc(Cl)cc2)n1	inconclusive: 18.5 µM [inhibitor, single point]	
CCN(CC)c1nc(Oc2ccc(C(=O)NN)cc2)nc(Oc2ccc(C(=O)NN)cc2)n1	active: 9.28 µM	
CCn1c(CSc2nc3ccccc3s2)nnc1SCC(=O)c1ccc2c(c1)OCCO2	inconclusive: 18.5 µM [inhibitor, single point]	
CSCCC(NS(=O)(=O)c1ccc(C)cc1)C(=O)N1CCN(C(C)=O)CC1 (configuration not stated)	inactive	
COc1ccccc1OCc1ccc(C(=O)Nc2ccccc2F)cc1	inactive	
CSCCC(NC(=O)COc1ccccc1)C(=O)O (configuration not stated)	inactive	
Cc1c(NC(=O)C(=O)/C=C(\O)c2ccc(Br)cc2)c(=O)n(-c2ccccc2)n1C	inactive	
OC(COCc1ccco1)CN1CCN(C(c2ccccc2)c2ccccc2)CC1 (configuration not stated)	active: 6.57 µM	
OC(CC#CCN1CCCCCC1)(c1ccccc1)C1CCCC1 (configuration not stated)	active: 2.94 µM	
COc1ccccc1[C@@H]1C(c2ccc(F)cc2)=NN(c2ccccc2)[C@H]1C(=O)N1CCOC1=O	inconclusive: 18.5 µM [inhibitor, single point]	
Cc1nc(NS(=O)(=O)c2ccc(Br)cc2)c2c3c(sc2n1)CCC3	inconclusive: 2.08 µM [inhibitor, partial curve, poor fit]	
Nc1ccc(OCCCc2c(N)nc(N)nc2N)cc1	inactive	
CC(NC(=O)COc1ccc(S(=O)(=O)N2CCOCC2)cc1)c1ccccc1 (configuration not stated)	inconclusive: 18.5 µM [inhibitor, single point]	
CSc1ncc(/C=C2/C(=O)NC(=O)N(C3CCCCC3)C2=O)cn1	inconclusive: 20.8 µM [inhibitor, partial curve, poor fit]	
C=CCn1c(SCc2cc(=O)n3cc(C)ccc3n2)nnc1-c1cccc(C)c1	inconclusive: 9.28 µM [inhibitor, single point]	

An excerpt of these results, as labelled records.
O=C(CCNc1cccc(F)c1)c1cc2ccccc2o1
  Potency: inconclusive: 5.86 µM [inhibitor, partial curve]
CC1CCC(C(C)C)C(OCC(O)CNC(C)C)C1 (configuration not stated)
  Potency: inconclusive: 11.7 µM [inhibitor, partial curve, poor fit]
CCCCn1c(N)c(N(Cc2ccccc2OC)C(=O)COc2ccccc2OC)c(=O)[nH]c1=O
  Potency: inconclusive: 13.1 µM [inhibitor, partial curve]
